Laboratory results: US20080096210A1
No constants are given. Whether binding was seen depends on the method and setting. In cells and extracts the contact can be indirect. Some results given as binding are weak or reduced against the parent protein; the word gives no strength. Tags and fused reporters may be left off the sequences shown.

Chains of the proteins cited; added tags and fusions are not shown.
UniProt P53350: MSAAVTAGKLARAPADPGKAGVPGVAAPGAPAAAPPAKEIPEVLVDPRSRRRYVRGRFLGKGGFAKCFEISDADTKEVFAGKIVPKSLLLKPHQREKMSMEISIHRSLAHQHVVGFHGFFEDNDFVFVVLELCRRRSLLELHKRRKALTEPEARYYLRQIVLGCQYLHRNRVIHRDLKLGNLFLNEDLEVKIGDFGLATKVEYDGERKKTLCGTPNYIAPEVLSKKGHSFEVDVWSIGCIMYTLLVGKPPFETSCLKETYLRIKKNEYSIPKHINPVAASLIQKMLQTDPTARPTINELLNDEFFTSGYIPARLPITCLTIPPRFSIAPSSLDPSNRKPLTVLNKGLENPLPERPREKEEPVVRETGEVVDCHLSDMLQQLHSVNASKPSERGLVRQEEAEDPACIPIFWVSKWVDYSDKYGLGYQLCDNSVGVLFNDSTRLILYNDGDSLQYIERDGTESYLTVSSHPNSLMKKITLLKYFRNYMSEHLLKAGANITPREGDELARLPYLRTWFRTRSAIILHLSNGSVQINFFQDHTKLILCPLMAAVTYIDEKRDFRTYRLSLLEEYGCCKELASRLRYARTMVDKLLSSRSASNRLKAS

Target: Human recombinant Plk1 (Invitrogen) (human) (UniProt P53350)
Assay: in vitro kinase assay with recombinant His6-tagged RGC32 and human recombinant Plk1; binding concluded together with the co-immunoprecipitation

B1: recombinant His6-tagged RGC32 protein (pET-23d-RGC32, produced in Escherichia coli BL21-CodonPlus (DE3)) (protein, not shown: small tags and cut ends)
chain: MKPPAEDLSDALCEFDAVLADFASPFHERHFHYEEHLERMKRRSSASVSDSSGFSDSESADSLYRNSFSFSDEKLNSPTDSTPALLSATVTPQKAKLGDTKELEAFIADLDKTLASM
- binding: binds
